Laboratory results from patent publication US7037662.
Results are given in words; binding and its absence hold for the method and conditions named. Some binding calls cover weakened binding; strength is not graded here.

The chains behind the UniProt entries cited, without tags or fusion partners. Residues count along the entry.
UniProt P52799, residues 28-229: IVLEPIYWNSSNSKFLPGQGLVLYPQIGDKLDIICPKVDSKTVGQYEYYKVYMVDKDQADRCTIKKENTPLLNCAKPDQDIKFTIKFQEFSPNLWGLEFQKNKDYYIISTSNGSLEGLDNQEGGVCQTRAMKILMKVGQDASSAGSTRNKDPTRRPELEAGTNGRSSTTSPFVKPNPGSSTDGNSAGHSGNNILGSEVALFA
UniProt P20827, residues 19-182: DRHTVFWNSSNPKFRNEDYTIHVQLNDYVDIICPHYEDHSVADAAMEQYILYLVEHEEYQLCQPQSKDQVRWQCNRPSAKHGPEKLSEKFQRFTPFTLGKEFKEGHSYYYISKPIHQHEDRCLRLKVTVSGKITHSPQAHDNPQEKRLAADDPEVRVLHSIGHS

Legend:
[1] = target: T1, soluble HEK (sHEK), complete extracellular domain (exodomain) of HEK encoded by exons I-VII (human) (UniProt P29320); test: BIAcore, LERK-Fc over HEK-derivatised sensor chip
T1 sequence (looked up): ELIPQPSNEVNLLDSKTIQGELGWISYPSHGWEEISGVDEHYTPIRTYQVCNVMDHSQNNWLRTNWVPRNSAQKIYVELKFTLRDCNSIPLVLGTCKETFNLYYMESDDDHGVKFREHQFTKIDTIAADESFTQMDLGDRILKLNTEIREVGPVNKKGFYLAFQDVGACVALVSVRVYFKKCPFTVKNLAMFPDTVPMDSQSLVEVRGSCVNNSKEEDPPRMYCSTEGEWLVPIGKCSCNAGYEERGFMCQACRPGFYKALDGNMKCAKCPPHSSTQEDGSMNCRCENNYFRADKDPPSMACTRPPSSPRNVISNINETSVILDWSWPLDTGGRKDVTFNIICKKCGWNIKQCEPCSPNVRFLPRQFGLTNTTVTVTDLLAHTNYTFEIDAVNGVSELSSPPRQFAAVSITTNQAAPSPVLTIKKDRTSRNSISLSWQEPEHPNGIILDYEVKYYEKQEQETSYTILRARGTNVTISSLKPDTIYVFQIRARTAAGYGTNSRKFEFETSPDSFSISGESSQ

[2] = target: T1, soluble HEK (sHEK), complete extracellular domain (exodomain) of HEK encoded by exons I-VII (human); test: BIAcore; Fc fusion protein at 10 µg/ml (50 µl) on an sHEK-derivatised sensor chip; response 20 s after the end of the injection
[3] = target: T1, soluble HEK (sHEK), complete extracellular domain (exodomain) of HEK encoded by exons I-VII (human); test: BIAcore, LERK-Fc fusion over sensor chip-immobilised HEK exodomain
[4] = target: T1, soluble HEK (sHEK), complete extracellular domain (exodomain) of HEK encoded by exons I-VII (human); test: BIAcore, LERK-Fc fusion at 10 µg/ml over sensor chip-immobilised HEK exodomain

Measured: binding

LERK 5-Fc fusion protein (from UniProt P52799 28-229)
binds: [1] | [2] | [3]

LERK 1-Fc fusion protein (from UniProt P20827 19-182)
binds: all assays above
